# PubChem BioAssay AID1671195 – Yale University – 2021
# Assay: 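Knockdowns that increase or decrease uptake of fluorescent LDL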 (primary screen)
# Cell system: human Huh7 hepatoma cells
# Knock-down reagent: siRNA pool against human genes, 18 nM
# Duration: about 2 to 2.5 days of knockdown, then 8 h LDL uptake
# Challenge: DiI-labelled LDL at 30 µg/ml for 8 h, in lipoprotein-deficient serum medium
# Measurement: 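Per-cell DiI-LDL intensity by automated imaging; well means scaled to the plate median and given as a robust z-score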
# Scale: robust z-score: higher = more LDL uptake after knockdown
# Rule for the call: 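a gene counts as active if at least two replicate z-scores exceed ±2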
# The whole screen tested about 22,000 reagents; this is a part drawn at random. In the full data, about 1,510 (6.9%) were called active. 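Active includes knockdowns raising or lowering LDL uptake; positive z-scores mean more uptake, negative mean less.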 Entries without a mark were called inactive.
gene,"robust z-score, replicate 1","robust z-score, replicate 2","robust z-score, replicate 3"
KLHDC10,0.351,-0.922,-0.339
VDAC1,-0.258,-0.156,-0.742
SLC25A48-AS1,-0.181,-0.35,-0.473
TMED6,0.419,-0.619,-0.775
NABP2,0.0191,-0.472,0.0416
LOC391352 (retired record),-0.411,0.448,0.406
LINGO1,-1.2,-1.41,-1.26
PARAIL,0.402,0.339,0.884
LOC400464,-0.616,0.431,0.178
IQGAP3,0.343,0.813,0.813
NWD2,0.833,1.37,1.32
CD244,-0.186,-1.13,-0.5
NOC2L,-1.17,-0.726,-0.776
EFCAB6,-0.703,-0.577,-0.158
FLI1,0.531,1.37,-0.204
KRTAP6-3,0.639,0.619,0.455

Only “robust z-score, replicate 3”, for 3 of the entries above:
TMED6: -0.775
NABP2: 0.0416
LOC391352 (retired record): 0.406

Further entries follow.
gene,"robust z-score, replicate 1","robust z-score, replicate 2","robust z-score, replicate 3"
SLC17A2,-0.331,0.322,-0.0581
RBM3,0.0194,-0.428,-0.66
COX10,-0.821,-0.817,-0.603
GGT6,-0.638,-0.563,-0.866
PLAAT5,1.06,1.95,1.7
BCAS2,-1.38,-0.646,2.3
CNTFR,-0.769,-0.0575,-0.385
FLJ40288,1.56,1.64,1.54
CFAP97D1,-0.48,-0.249,-0.517
IKZF2,0.622,0.0411,0.779
SGMS1,-1.49,-1.75,-1.47
LOC440746 (retired record),-0.686,-0.476,-0.881
RABEPK,-0.626,-1.17,-0.274
RBM7,0.151,1.98,0.453
GPR12,-2.3 (active),-2.1,-2.59
ZBED11,0.179,-0.42,-0.122
MINDY4,-0.842,-0.66,-0.00105
OVCH1,0.547,1.73,1.33
ARVCF,-1.28,-0.949,-0.623
DMGDH,1.38,1.16,1.94
HMX1,-0.0882,0.186,-0.0276
IRX5,0.178,-0.526,-1.23
WFDC11,-0.283,-0.133,-0.262
OR6K3,-1.07,-1.14,-1.13
ACER2,-0.887,-0.998,-0.704
LOC402157 (retired record),0.323,0.796,0.705
CAP2,-0.436,0.221,-0.733
H2BC9,0.366,0.731,1.34
MARCHF11-DT,-1.1,-1.53,-1.11
TCEANC2,1.44,1.09,0.392
